The other results are listed elsewhere or left out. Further columns of the screen follow, without active or inactive calls. Most of these compounds were active or inconclusive in the main read-out, so they are no random draw. Potencies come from curve fits of mixed quality, noted in brackets.

The results in this text go back to PubChem BioAssay AID1487 (National Center for Advancing Translational Sciences (NCATS), 2009).

The experiment can be described thus: qHTS Assay for Modulators of Lamin A Splicing. Particulars: HeLa LMNA splicing GFP/RFP minigene ratio, 48 h. Put shortly:
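S3 HeLa stable clones carrying a lamin A-EGFP splicing minigene plus DsRed2 were seeded at 600 cells/well in Opti-MEM with 2% FBS, pin-dosed and incubated 48 h at 37°C. Acumen cytometry (488 nm) gave the GFP/RFP total-intensity ratio.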
For orientation: qHTS replaces the single test concentration by a dilution series.

The mark [1] stands for this setting: measured here: RFP viability control channel.
[2] abbreviates: measured here: GFP splicing reporter channel.

As for `CCN(CC)S(=O)(=O)c1ccc2c(c1)c(=O)c(C(=O)NCc1ccc3c(c1)OCO3)cn2C`, under setting [1], the AC50 was 0.1 µM [rising, full curve, poor fit].
Take `COC(=O)C1=C(C(=O)OC)[C@@H]2N(C)c3ccc(OC)cc3[C@@]23C[C@@H](C(=O)OC)N(C(=O)c2cccs2)C3=N1`: the AC50 under setting [2] is 0.355 µM [falling, partial curve, poor fit].
Turning to `COc1ccc2[nH]c(=O)c(CN(CCCN(C)C)C(=O)Nc3ccc(F)cc3)cc2c1`, the AC50 under setting [1] was 12.6 µM [rising, single point].
As to `CN(C)/C=C1\C(=O)NN=C1c1ccccc1`, the AC50 was 0.282 µM [falling, full curve] under setting [2] and 0.158 µM [falling, full curve, poor fit] under setting [1].
On to `OCC1(Cc2ccc(Cl)cc2)CCN(CC2CC=CCC2)CC1` (centres undefined), for which the AC50 is 31.6 µM [falling, partial curve] under setting [2] and 28.2 µM [falling, partial curve] under setting [1].
Take `O=C1COc2ccc(C(=O)COC(=O)c3cnc(Cl)c(Cl)c3)cc2N1`: under setting [2], the AC50 is 0.501 µM [falling, partial curve, poor fit].
For the compound `CCCc1nn(C)c(C(=O)Nc2ccc3ccccc3c2)c1Cl`, the AC50 under setting [1] was 22.4 µM [rising, single point].
Take `Cc1nc(CC(=O)N2CCN(c3cccc(C)c3C)CC2)cs1`: the AC50 runs as follows: under setting [2], 35.5 µM [rising, single point]; under setting [1], 35.5 µM [rising, single point].
On to `COc1ccc(C)cc1NC(=O)C(=O)NCc1ccncc1`, for which the AC50 under setting [1] is 31.6 µM [rising, single point].
Take `O=c1[nH]c(CSc2nc3ccccc3[nH]2)nc2c1cnn2-c1ccccc1`: under setting [1], the AC50 is 10 µM [rising, partial curve].
As for `CCCCNC(=O)CC1S/C(=N/N=C/c2ccc(OC)cc2)NC1=O` (centres undefined), the AC50 under setting [2] is 0.251 µM [rising, full curve, poor fit].
`CCn1nnc(NC(=O)c2ccc(-c3ccc(Cl)cc3)o2)n1`: under setting [1], the AC50 is 0.562 µM [rising, full curve, poor fit].
Consider `CCN1CCN(CCCN(Cc2ccco2)C(=S)Nc2ccc(Cl)cc2)CC1`, for which the AC50 reads like this: under setting [2], 0.00891 µM [falling, full curve, poor fit]; under setting [1], 0.00501 µM [falling, full curve, poor fit].
In the case of `CC(C)c1ccccc1OCCNC(=O)c1cccnc1`, the half-maximal activity concentration (AC50) under setting [1] is 17.8 µM [rising, single point].
Turning to `O=C(c1n[nH]c(=O)c2ccccc12)N1CCN(c2ccccc2)CC1`, the AC50 was 5.62 µM [falling, full curve, poor fit] under setting [2] and 4.47 µM [falling, full curve, poor fit] under setting [1].
For `Cc1ccc(-n2cnc3cc(C(=O)NCc4ccccc4Cl)ccc32)c(C)c1`, the AC50 is 7.08 µM [falling, full curve] under setting [2] and 0.00562 µM [falling, full curve, poor fit] under setting [1].
Take `Cc1cccc(Cn2cccc2CNS(=O)(=O)c2ccc(C)c(C)c2)c1`: the AC50 is, setting by setting: under setting [2], 2.51 µM [falling, partial curve]; under setting [1], 2.24 µM [falling, partial curve].
`CCN(CC)CCN1C(=O)c2oc3ccccc3c(=O)c2C1c1ccc(C)cc1` (centres undefined): under setting [1], the AC50 is 31.6 µM [rising, single point].
Regarding `Cc1cccc(NS(=O)(=O)c2ccc3nc(-c4ccccc4)[nH]c3c2)c1C`, the AC50 under setting [1] was 17.8 µM [rising, partial curve, poor fit].
`COc1ccc(-n2c(=O)c3ccccc3n(CC(=O)NCc3ccco3)c2=O)cc1`: the AC50 is, setting by setting: under setting [2], 0.708 µM [falling, single point]; under setting [1], 39.8 µM [falling, partial curve, poor fit].
Turning to `O=C1CC(C(=O)NCc2ccccc2)C2(CCCC2)O1` (centres undefined), under setting [1], the AC50 is 5.01 µM [falling, full curve, poor fit].
On the same count and under the same terms, for `CCOC(=O)c1ccccc1NS(=O)(=O)c1ccc(S(=O)(=O)N2CCCC2)cc1` the value was 20 µM [rising, single point].
Turning to `CC1CCN(C(=O)/C(=C\c2cccs2)NC(=O)c2ccccc2)CC1`, the concentration at half-maximal activity (AC50) runs as follows: under setting [2], 8.91 µM [falling, single point]; under setting [1], 10 µM [falling, partial curve].
In the case of `COc1ccc(C(=O)C(CN2CCOCC2)c2ccccc2)cc1` (centres undefined), the AC50 reads like this: under setting [2], 3.16 µM [falling, full curve]; under setting [1], 22.4 µM [falling, partial curve].
On to `O=C(/C(=N/N=C/c1ccc(O)c(O)c1O)c1ccccc1)c1ccccc1`, for which the AC50 under setting [2] is 35.5 µM [falling, single point].
As for `O=C(NCCCn1ccnc1)C(=O)NCC1OCCN1S(=O)(=O)c1ccc(Cl)cc1` (centres undefined), the AC50 under setting [1] is 7.94 µM [rising, single point].
`COc1ccc(C)cc1-n1nnnc1SCC(=O)c1ccc2c(c1)OCCO2`: the AC50 reads like this: under setting [2], 11.2 µM [rising, partial curve]; under setting [1], 14.1 µM [rising, partial curve].
Turning to `COc1ccc(NC(=S)N(CCN2CCOCC2)Cc2cc3cc4c(cc3[nH]c2=O)OCCO4)cc1`, the AC50 reads like this: under setting [2], 0.158 µM [falling, full curve, poor fit]; under setting [1], 0.0251 µM [falling, full curve, poor fit].
As to `Cc1ccsc1C(=O)OCC(=O)N1CCc2ccccc2C1`, under setting [1], the AC50 is 2 µM [falling, partial curve, poor fit].
For the compound `C=CCN1CCc2cc(O)c(O)cc2C(c2ccccc2)C1` (centres undefined), the AC50 under setting [2] is 35.5 µM [falling, single point].
Regarding `CCCOc1ccc(-c2nc[nH]c2[N+](=O)[O-])cc1`, under setting [2], the AC50 is 0.447 µM [falling, partial curve].
For `CCC1CCCCN1C(=O)c1sc2nc(C)nc(N(CC)CC)c2c1C` (centres undefined), the AC50 under setting [2] was 1.26 µM [falling, partial curve] and the AC50 under setting [1] is 5.01 µM [falling, partial curve].
As to `Cc1cc(C)c2c(-n3cccc3)c(C(=O)O)sc2n1`, the AC50 under setting [2] was 12.6 µM [rising, single point] and the AC50 under setting [1] was 10 µM [rising, partial curve, poor fit].
With `Nc1ncnc2nc[nH]c12`, the AC50 is, setting by setting: under setting [2], 2.24 µM [falling, partial curve, poor fit]; under setting [1], 2.51 µM [falling, partial curve, poor fit].

As usually defined, the AC50 is the concentration giving half of the maximal activity seen.
